# In the supplement of paper PMC8728848:
# The list shows a part of the results.
# B1: PX14343G-pdi-535-24-535 (Parabacteroides distasonis) (protein)
# chain: LDTVPKDQLAPSTTWQTEADAKGFIVGCYKDLLDGNTLLYLDCGSDIGYNNFPWEGFRPWGDGSLSSSNPGQILYDYKSIRKANTFLENVDKVTFSSDAVKANYVAQAKAIRAYKYFLMNWWYGGVPIISSYSSADEAKVERNTEQEVRDYIAKDLDEALAGIAEAPEARGYIAKGAVLAIKMREALYYGDWQKAKDAAKAIIDLKQYELDPDYTNLFKVSGVDSKEIILADQNIETLDGLGTIGQMYNNVDQGWSSIVPTQNLVDMYEMSDGLTKEESKTYDAKHPFANRDPRMAMTILYPGRDWRGDVLNTLDEKLQDGTVNKNFPTYTDNASKSALTWAKYLDPMDQYGDVWSSGACPIVFRYAEVLLTYAEAANELSGPSDEIYGYLNQIRQRVGMGEVDKAKYGTKDKLRELIRRERTVELAGEGLRRADIVRWQEDGKMLAEKVMNGDLLRVTGTINYGESEPTKRAEITGTAVIETRQFSSRNRYLPIPQTSMDKNPNLKQNPGY
# What was measured:
# Experiment in all cases: glycan array binding signal (z-score within array); higher = stronger binding
# Details in all cases: glycan notation: IUPAC condensed, linker removed
# [1] = target: Neu5Ac(a2-3)Gal(b1-3)GalNAc
# Summary of the method: (§1)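 Columns mapping to the same glycan were averaged after glycan names were converted to IUPAC-condensed notation. The data come from 3228 arrays in the Consortium for Functional Glycomics database, limited to those with an available protein sequence. Binding is reported as a within-array Z-score averaged across arrays of one protein sequence and across linkers.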
# [2] = target: Neu5Ac(a2-3)Gal(b1-3)GalNAc(b1-3)Gal(a1-4)Gal(b1-4)Glc
# Summary of the method: as §1
# [3] = target: Neu5Ac(a2-3)Gal(b1-3)GalNAc(b1-4)[Neu5Ac(a2-3)]Gal(b1-4)Glc
# Summary of the method: as §1
# [4] = target: Neu5Ac(a2-3)Gal(b1-3)GalNAc(b1-4)[Neu5Ac(a2-8)Neu5Ac(a2-3)]Gal(b1-4)Glc
# Summary of the method: as §1
# [5] = target: Neu5Ac(a2-3)Gal(b1-3)GalNAc6S
# Summary of the method: as §1
# [6] = target: Neu5Ac(a2-3)Gal(b1-3)GlcNAc
# Summary of the method: as §1
# [7] = target: Neu5Ac(a2-3)Gal(b1-3)GlcNAc(b1-2)Man
# Summary of the method: as §1
# [8] = target: Neu5Ac(a2-3)Gal(b1-3)GlcNAc(b1-2)Man(a1-3)[GlcNAc(b1-4)][Neu5Ac(a2-3)Gal(b1-3)GlcNAc(b1-2)Man(a1-6)]Man(b1-4)GlcNAc(b1-4)GlcNAc
# Summary of the method: as §1
# [9] = target: Neu5Ac(a2-3)Gal(b1-3)GlcNAc(b1-2)Man(a1-3)[Neu5Ac(a2-3)Gal(b1-3)GlcNAc(b1-2)Man(a1-6)]Man(b1-4)GlcNAc(b1-4)GlcNAc
# Summary of the method: as §1
# [10] = target: Neu5Ac(a2-3)Gal(b1-3)GlcNAc(b1-3)Gal(b1-3)GlcNAc
# Summary of the method: as §1
# [11] = target: Neu5Ac(a2-3)Gal(b1-3)GlcNAc(b1-3)Gal(b1-4)GlcNAc
# Summary of the method: as §1
# [12] = target: Neu5Ac(a2-3)Gal(b1-3)GlcNAc(b1-3)GalNAc
# Summary of the method: as §1
# [13] = target: Neu5Ac(a2-3)Gal(b1-3)GlcNAc(b1-4)Gal(b1-4)Glc
# Summary of the method: as §1
# [14] = target: Neu5Ac(a2-3)Gal(b1-3)GlcNAc(b1-6)GalNAc
# Summary of the method: as §1
# [15] = target: Neu5Ac(a2-3)Gal(b1-3)GlcNAc6S
# Summary of the method: as §1
# [16] = target: Neu5Ac(a2-3)Gal(b1-3)[Fuc(a1-4)]GlcNAc
# Summary of the method: as §1
# [17] = target: Neu5Ac(a2-3)Gal(b1-3)[Fuc(a1-4)]GlcNAc(b1-3)Gal(b1-3)[Fuc(a1-4)]GlcNAc
# Summary of the method: as §1
# [18] = target: Neu5Ac(a2-3)Gal(b1-3)[Fuc(a1-4)]GlcNAc(b1-3)Gal(b1-4)[Fuc(a1-3)]GlcNAc
# Summary of the method: as §1
# [19] = target: Neu5Ac(a2-3)Gal(b1-3)[GlcNAc(b1-6)]GalNAc
# Summary of the method: as §1
# [20] = target: Neu5Ac(a2-3)Gal(b1-3)[Neu5Ac(a2-6)]GalNAc
# Summary of the method: as §1
# [21] = target: Neu5Ac(a2-3)Gal(b1-3)[Neu5Ac(a2-6)]GlcNAc(b1-3)[Fuc(a1-3)[Gal(b1-4)]GlcNAc(b1-6)]Gal(b1-4)Glc
# Summary of the method: as §1
# [22] = target: Neu5Ac(a2-3)Gal(b1-3)]Neu5Ac(a2-3)Gal(b1-4)]GlcNAc
# Summary of the method: as §1
# [23] = target: Neu5Ac(a2-3)Gal(b1-4)Glc
# Summary of the method: as §1
# [24] = target: Neu5Ac(a2-3)Gal(b1-4)GlcNAc
# Summary of the method: as §1
# [25] = target: Neu5Ac(a2-3)Gal(b1-4)GlcNAc(b1-2)Man
# Summary of the method: as §1
# [26] = target: Neu5Ac(a2-3)Gal(b1-4)GlcNAc(b1-2)Man(a1-3)[GlcNAc(b1-4)][Neu5Ac(a2-3)Gal(b1-4)GlcNAc(b1-2)Man(a1-6)]Man(b1-4)GlcNAc(b1-4)GlcNAc
# Summary of the method: as §1
# [27] = target: Neu5Ac(a2-3)Gal(b1-4)GlcNAc(b1-2)Man(a1-3)[Neu5Ac(a2-3)Gal(b1-4)GlcNAc(b1-2)Man(a1-6)]Man(b1-4)GlcNAc(b1-4)GlcNAc
# Summary of the method: as §1
# [28] = target: Neu5Ac(a2-3)Gal(b1-4)GlcNAc(b1-2)Man(a1-3)[Neu5Ac(a2-3)Gal(b1-4)GlcNAc(b1-2)Man(a1-6)]Man(b1-4)GlcNAc(b1-4)[Fuc(a1-6)]GlcNAc
# Summary of the method: as §1
# [29] = target: Neu5Ac(a2-3)Gal(b1-4)GlcNAc(b1-2)Man(a1-3)[Neu5Ac(a2-6)Gal(b1-4)GlcNAc(b1-2)Man(a1-6)]Man(b1-4)GlcNAc(b1-4)GlcNAc
# Summary of the method: as §1
# [30] = target: Neu5Ac(a2-3)Gal(b1-4)GlcNAc(b1-2)[Neu5Ac(a2-3)Gal(b1-4)GlcNAc(b1-4)]Man(a1-3)[GlcNAc(b1-4)][Neu5Ac(a2-3)Gal(b1-4)GlcNAc(b1-2)[Neu5Ac(a2-3)Gal(b1-4)GlcNAc(b1-6)]Man(a1-6)]Man(b1-4)GlcNAc(b1-4)GlcNAc
# Summary of the method: as §1
# [31] = target: Neu5Ac(a2-3)Gal(b1-4)GlcNAc(b1-2)[Neu5Ac(a2-3)Gal(b1-4)GlcNAc(b1-4)]Man(a1-3)[GlcNAc(b1-4)][Neu5Ac(a2-3)Gal(b1-4)GlcNAc(b1-4)Man(a1-6)]Man(b1-4)GlcNAc(b1-4)GlcNAc
# Summary of the method: as §1
# [32] = target: Neu5Ac(a2-3)Gal(b1-4)GlcNAc(b1-2)[Neu5Ac(a2-3)Gal(b1-4)GlcNAc(b1-6)]Man(a1-6)[Neu5Ac(a2-3)Gal(b1-4)GlcNAc(b1-2)Man(a1-3)]Man(b1-4)GlcNAc(b1-4)GlcNAc
# Summary of the method: as §1
# [33] = target: Neu5Ac(a2-3)Gal(b1-4)GlcNAc(b1-2)[Neu5Ac(a2-3)Gal(b1-4)GlcNAc(b1-6)]Man(a1-6)[Neu5Ac(a2-3)Gal(b1-4)GlcNAc(b1-2)Man(a1-3)][GlcNAc(b1-4)]Man(b1-4)GlcNAc(b1-4)GlcNAc
# Summary of the method: as §1
# [34] = target: Neu5Ac(a2-3)Gal(b1-4)GlcNAc(b1-3)Gal
# Summary of the method: as §1
# [35] = target: Neu5Ac(a2-3)Gal(b1-4)GlcNAc(b1-3)Gal(b1-3)GlcNAc
# Summary of the method: as §1
# [36] = target: Neu5Ac(a2-3)Gal(b1-4)GlcNAc(b1-3)Gal(b1-4)GlcNAc
# Summary of the method: as §1
# [37] = target: Neu5Ac(a2-3)Gal(b1-4)GlcNAc(b1-3)Gal(b1-4)GlcNAc(b1-2)Man(a1-3)[Neu5Ac(a2-3)Gal(b1-4)GlcNAc(b1-3)Gal(b1-4)GlcNAc(b1-2)Man(a1-6)]Man(b1-4)GlcNAc(b1-4)GlcNAc
# Summary of the method: as §1
binder,measurement,setting,value
B1,glycan array binding signal (z-score),[1],-0.109
same,glycan array binding signal (z-score),[2],0.085
same,glycan array binding signal (z-score),[3],-0.642
same,glycan array binding signal (z-score),[4],0.336
same,glycan array binding signal (z-score),[5],-0.954
same,glycan array binding signal (z-score),[6],-0.984
same,glycan array binding signal (z-score),[7],0.495
same,glycan array binding signal (z-score),[8],-0.329
same,glycan array binding signal (z-score),[9],0.463
same,glycan array binding signal (z-score),[10],1.46
same,glycan array binding signal (z-score),[11],-0.799
same,glycan array binding signal (z-score),[12],-0.603
same,glycan array binding signal (z-score),[13],0.258
same,glycan array binding signal (z-score),[14],0.28
same,glycan array binding signal (z-score),[15],0.659
same,glycan array binding signal (z-score),[16],-0.235
same,glycan array binding signal (z-score),[17],-0.375
same,glycan array binding signal (z-score),[18],-0.605
same,glycan array binding signal (z-score),[19],-0.441
same,glycan array binding signal (z-score),[20],-0.287
same,glycan array binding signal (z-score),[21],-0.263
same,glycan array binding signal (z-score),[22],-0.118
same,glycan array binding signal (z-score),[23],-0.095
same,glycan array binding signal (z-score),[24],-0.52
same,glycan array binding signal (z-score),[25],0.906
same,glycan array binding signal (z-score),[26],-0.311
same,glycan array binding signal (z-score),[27],0.078
same,glycan array binding signal (z-score),[28],0.505
same,glycan array binding signal (z-score),[29],-0.159
same,glycan array binding signal (z-score),[30],-0.109
same,glycan array binding signal (z-score),[31],-0.359
same,glycan array binding signal (z-score),[32],-0.952
same,glycan array binding signal (z-score),[33],-0.038
same,glycan array binding signal (z-score),[34],-0.794
same,glycan array binding signal (z-score),[35],-0.163
same,glycan array binding signal (z-score),[36],0.102
same,glycan array binding signal (z-score),[37],0.236

# Part of the list above, with tabs.
binder	measurement	setting	value
B1	glycan array binding signal (z-score)	[30]	-0.109
same	glycan array binding signal (z-score)	[31]	-0.359
